# From the supplement of paper PMC12067093, “Discovery and optimisation of a covalent ligand for TRIM25 and its application to targeted protein ubiquitination” (Chemical Science, 2025)
# By UniProt entry, the sequences of proteins in these tests, tags left out. Where a name states a change or a piece, a line headed by the entry shows the natural chain unless it says otherwise.
# UniProt P42694: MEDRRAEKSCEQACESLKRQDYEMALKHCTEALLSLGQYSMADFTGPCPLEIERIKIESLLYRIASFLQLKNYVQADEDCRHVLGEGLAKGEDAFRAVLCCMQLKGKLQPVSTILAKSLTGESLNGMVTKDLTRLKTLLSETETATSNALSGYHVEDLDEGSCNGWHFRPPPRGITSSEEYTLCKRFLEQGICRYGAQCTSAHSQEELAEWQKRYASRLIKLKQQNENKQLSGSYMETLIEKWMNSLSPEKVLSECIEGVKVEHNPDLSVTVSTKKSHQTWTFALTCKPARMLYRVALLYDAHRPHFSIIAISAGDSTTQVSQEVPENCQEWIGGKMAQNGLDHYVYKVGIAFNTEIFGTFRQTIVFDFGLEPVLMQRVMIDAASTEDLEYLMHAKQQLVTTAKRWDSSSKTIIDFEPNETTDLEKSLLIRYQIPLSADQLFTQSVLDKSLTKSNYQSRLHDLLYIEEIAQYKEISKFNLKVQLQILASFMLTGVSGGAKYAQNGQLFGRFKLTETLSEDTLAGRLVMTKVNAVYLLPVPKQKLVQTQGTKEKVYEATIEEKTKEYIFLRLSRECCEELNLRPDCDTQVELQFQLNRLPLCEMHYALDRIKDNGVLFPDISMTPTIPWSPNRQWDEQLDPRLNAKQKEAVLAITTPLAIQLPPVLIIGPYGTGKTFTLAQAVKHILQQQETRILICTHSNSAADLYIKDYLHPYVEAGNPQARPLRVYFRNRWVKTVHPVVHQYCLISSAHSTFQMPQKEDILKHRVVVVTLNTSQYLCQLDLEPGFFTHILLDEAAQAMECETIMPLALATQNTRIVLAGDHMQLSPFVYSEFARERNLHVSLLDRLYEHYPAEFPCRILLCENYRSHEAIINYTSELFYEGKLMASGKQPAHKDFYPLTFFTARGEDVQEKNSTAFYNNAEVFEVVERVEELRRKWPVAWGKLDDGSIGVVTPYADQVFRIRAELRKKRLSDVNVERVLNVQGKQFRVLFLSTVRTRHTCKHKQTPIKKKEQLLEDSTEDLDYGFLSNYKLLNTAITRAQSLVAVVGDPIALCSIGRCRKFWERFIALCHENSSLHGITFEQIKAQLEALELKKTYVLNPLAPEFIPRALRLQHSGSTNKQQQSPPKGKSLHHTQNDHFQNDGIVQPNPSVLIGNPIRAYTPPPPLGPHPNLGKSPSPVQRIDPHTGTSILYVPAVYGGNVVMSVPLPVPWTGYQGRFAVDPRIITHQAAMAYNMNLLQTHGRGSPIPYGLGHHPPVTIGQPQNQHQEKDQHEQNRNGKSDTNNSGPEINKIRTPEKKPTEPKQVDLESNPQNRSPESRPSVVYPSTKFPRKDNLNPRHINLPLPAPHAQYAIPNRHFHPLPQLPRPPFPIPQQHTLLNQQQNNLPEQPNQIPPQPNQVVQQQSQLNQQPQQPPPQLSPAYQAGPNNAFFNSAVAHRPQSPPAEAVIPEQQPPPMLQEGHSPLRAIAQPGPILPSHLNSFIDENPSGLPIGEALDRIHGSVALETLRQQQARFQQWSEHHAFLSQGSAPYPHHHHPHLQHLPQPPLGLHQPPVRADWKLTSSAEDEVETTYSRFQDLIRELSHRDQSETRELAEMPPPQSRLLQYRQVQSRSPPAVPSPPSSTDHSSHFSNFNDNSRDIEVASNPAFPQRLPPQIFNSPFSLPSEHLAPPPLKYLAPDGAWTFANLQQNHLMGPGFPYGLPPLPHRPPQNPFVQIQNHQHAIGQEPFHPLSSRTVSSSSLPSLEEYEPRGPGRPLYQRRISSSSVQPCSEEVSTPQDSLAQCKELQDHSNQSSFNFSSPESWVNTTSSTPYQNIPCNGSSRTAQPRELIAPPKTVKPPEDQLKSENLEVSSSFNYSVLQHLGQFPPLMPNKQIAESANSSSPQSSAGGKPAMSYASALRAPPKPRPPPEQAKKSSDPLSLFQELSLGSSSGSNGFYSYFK
# UniProt Q9ULT8: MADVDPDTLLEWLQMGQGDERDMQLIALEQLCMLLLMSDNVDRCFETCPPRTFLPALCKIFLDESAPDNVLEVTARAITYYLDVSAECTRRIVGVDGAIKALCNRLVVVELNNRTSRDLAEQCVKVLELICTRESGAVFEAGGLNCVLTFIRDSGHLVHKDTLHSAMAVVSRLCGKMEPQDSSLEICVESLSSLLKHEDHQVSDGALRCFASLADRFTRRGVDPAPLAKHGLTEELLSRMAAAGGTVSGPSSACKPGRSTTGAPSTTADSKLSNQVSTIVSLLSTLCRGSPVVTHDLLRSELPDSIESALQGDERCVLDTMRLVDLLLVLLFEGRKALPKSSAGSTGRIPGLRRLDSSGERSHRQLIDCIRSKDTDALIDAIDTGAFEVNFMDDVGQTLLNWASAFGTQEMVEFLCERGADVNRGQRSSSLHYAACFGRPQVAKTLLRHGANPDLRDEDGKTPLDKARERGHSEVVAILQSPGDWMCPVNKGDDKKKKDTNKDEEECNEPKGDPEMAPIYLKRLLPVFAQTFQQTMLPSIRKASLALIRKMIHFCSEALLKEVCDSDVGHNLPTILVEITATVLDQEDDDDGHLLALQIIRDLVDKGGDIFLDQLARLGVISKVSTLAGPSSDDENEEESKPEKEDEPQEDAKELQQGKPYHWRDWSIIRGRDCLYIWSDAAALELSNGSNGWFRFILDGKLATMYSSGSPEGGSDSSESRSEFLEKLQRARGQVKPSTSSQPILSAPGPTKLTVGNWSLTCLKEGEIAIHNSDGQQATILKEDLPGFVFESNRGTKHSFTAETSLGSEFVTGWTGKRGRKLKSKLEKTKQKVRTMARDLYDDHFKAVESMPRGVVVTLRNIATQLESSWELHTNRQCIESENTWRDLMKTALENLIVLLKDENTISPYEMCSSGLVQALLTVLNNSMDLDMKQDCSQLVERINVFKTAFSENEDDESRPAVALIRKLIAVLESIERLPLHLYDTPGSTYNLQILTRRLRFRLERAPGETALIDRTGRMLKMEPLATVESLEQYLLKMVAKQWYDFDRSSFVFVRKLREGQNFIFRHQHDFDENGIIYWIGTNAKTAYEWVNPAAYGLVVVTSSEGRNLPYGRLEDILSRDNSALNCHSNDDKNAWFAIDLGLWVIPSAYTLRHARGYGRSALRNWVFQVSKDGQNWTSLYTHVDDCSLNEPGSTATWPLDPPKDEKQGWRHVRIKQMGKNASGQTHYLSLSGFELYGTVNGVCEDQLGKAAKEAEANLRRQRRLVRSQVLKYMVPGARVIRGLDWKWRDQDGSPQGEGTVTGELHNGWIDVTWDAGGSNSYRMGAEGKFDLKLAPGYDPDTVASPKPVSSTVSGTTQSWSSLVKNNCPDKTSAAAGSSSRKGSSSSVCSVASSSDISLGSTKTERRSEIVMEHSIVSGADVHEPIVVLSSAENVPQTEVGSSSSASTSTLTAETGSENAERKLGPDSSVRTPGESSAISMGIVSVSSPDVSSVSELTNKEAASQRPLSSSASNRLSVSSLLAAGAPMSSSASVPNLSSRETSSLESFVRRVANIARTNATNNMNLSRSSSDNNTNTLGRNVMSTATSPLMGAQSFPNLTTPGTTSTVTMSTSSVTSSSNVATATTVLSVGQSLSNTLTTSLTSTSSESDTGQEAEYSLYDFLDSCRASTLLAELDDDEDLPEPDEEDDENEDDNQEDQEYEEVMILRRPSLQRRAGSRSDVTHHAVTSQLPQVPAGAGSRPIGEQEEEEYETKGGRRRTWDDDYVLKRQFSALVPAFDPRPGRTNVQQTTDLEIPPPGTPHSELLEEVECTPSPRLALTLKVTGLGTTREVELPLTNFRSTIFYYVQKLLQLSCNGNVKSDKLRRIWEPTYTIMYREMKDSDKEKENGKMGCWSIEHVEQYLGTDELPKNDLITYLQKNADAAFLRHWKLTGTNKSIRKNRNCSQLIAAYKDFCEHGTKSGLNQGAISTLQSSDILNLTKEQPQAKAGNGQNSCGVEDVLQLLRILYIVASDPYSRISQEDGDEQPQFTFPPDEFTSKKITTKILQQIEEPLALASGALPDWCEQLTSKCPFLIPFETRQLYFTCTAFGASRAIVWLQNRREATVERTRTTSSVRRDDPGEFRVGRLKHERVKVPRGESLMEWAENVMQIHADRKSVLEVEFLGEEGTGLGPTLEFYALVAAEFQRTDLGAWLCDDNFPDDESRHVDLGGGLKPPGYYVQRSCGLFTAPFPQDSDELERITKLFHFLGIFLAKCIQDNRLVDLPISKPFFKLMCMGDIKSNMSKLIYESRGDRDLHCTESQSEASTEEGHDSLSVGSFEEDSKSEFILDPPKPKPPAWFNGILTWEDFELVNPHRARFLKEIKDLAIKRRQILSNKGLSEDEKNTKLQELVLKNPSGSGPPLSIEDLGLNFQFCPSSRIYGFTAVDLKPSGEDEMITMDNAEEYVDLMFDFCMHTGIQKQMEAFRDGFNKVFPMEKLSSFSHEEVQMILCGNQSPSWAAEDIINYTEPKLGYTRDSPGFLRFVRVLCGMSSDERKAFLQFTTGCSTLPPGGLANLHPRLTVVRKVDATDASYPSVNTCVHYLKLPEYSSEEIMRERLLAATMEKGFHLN
# UniProt O00291: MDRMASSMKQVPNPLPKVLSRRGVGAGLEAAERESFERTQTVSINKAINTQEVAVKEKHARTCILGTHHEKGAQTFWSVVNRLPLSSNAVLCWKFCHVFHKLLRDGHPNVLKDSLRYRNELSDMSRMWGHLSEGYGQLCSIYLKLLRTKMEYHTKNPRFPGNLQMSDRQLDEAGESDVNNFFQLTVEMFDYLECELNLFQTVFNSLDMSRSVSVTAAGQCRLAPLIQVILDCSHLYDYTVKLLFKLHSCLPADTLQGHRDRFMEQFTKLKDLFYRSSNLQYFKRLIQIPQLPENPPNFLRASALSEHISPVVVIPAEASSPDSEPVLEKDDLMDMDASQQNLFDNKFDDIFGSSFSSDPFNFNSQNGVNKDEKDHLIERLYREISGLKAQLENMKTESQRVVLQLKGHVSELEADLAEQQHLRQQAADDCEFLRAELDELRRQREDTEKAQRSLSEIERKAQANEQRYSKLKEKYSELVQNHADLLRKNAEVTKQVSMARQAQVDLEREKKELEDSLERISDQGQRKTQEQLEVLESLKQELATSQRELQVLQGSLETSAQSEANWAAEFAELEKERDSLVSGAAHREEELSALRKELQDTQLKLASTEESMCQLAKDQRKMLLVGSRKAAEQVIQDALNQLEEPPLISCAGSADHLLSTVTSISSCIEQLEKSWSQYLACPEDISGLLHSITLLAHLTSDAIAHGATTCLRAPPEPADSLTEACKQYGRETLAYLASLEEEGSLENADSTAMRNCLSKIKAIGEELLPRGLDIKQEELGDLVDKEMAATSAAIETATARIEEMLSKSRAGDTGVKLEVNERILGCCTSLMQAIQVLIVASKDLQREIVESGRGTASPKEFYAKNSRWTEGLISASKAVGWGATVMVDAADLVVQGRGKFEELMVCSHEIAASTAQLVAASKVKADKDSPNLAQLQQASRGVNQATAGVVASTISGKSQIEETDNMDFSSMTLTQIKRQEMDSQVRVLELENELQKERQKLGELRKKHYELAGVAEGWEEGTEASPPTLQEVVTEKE
# UniProt Q8N4P3, whole entry: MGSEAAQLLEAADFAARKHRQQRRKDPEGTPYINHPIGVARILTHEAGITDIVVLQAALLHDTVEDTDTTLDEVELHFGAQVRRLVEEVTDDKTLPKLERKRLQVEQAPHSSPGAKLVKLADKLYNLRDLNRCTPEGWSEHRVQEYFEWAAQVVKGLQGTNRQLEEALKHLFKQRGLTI
# UniProt Q9BW72: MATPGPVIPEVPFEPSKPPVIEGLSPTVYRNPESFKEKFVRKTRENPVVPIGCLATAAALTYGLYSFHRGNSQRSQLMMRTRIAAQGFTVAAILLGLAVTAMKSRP
# UniProt P35914: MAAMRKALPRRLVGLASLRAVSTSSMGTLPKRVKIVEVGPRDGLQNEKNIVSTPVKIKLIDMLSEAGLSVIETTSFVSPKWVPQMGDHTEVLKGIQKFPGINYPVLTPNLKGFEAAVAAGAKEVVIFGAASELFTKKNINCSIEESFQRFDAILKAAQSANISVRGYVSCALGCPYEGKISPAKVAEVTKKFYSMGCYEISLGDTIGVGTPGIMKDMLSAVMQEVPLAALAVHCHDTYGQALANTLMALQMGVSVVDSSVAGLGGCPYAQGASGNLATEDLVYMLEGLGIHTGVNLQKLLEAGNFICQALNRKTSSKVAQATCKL
# UniProt P51858: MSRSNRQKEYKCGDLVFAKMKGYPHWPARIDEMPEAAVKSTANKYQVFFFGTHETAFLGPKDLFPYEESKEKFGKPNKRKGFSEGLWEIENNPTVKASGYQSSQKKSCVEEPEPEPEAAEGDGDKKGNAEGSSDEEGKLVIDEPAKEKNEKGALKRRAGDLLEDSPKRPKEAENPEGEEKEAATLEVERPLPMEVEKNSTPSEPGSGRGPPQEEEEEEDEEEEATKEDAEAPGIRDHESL
# This is one part of the list.
# Compound: Cc1cc(ccc1-c1ccccc1)C(=O)N1CCCN(CC1)C(=O)CCl [compound 10]
# Test: probe-labelled cysteine peptide fold change vs DMSO (competition) (log2 fold change); higher = less target engagement (more negative = stronger competition)
# Settings: THP-1, incubation time: 4 h
# 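Also: competitive profiling in live THP-1 cells: cysteine peptides tagged with an iodoacetamide desthiobiotin (IA-DTB) probe, intensity after compound treatment relative to DMSO-treated cells.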
Target,probe-labelled cysteine peptide fold change (10 µM),probe-labelled cysteine peptide fold change (50 µM)
HELZ_P42694_101_AVLCCMQLK (UniProt P42694),-0.198,-1.11
HCFC1_P51610_353_AWNNQVCCK (UniProt P51610),-0.0641,-0.0904
HECTD1_Q9ULT8_187_MEPQDSSLEICVESLSSLLK (UniProt Q9ULT8),-0.0575,-0.0595
HECTD1_Q9ULT8_1944_NCSQLIAAYK (UniProt Q9ULT8),-0.00574,-0.32
HERC4_Q5GLZ8_160_ASEVFCWGQNK (UniProt Q5GLZ8),-0.118,-0.0566
HIP1_O00291_613_LASTEESMCQLAK (UniProt O00291),-0.298,-0.336
HECTD1_Q9ULT8_146_ESGAVFEAGGLNCVLTFIR (UniProt Q9ULT8),0.0977,0.359
HGD_Q93099_180_MLVQPNEICVIQR (UniProt Q93099),-0.089,0.177
HDDC3_Q8N4P3_133_CTPEGWSEHR (UniProt Q8N4P3),0.13,-0.00995
HIGD2A_Q9BW72_53_TRENPVVPIGCLATAAALTYGLYSFHR (UniProt Q9BW72),0.219,0.296
HLA-DRB5_Q30154_146_TQTLQHHNLLVCSVNGFYPGSIEVR (UniProt Q30154),0.00511,0.0856
HMGCL_P35914_323_VAQATCK (UniProt P35914),-0.282,-0.413
HLA-E_P13747_185_AYLEDTCVEWLHK (UniProt P13747),-0.138,0.067
HDAC10_Q969S8_663_MLQCHPHLVA (UniProt Q969S8),-0.0368,-0.2
HERC2_O95714_1037_ISSCLDFEQHSR (UniProt O95714),0.0441,0.321
HELZ_P42694_100_AVLCCMQLK (UniProt P42694),-0.406,-1.27
HEATR3_Q7Z4Q2_57_ECACAGLAR (UniProt Q7Z4Q2),-1.43,-4.94
HGS_O14964_212_VCEPCYEQLNR (UniProt O14964),0.0236,-0.13
HEATR1_Q9H583_303_DGLSCLIVLLQR (UniProt Q9H583),-0.377,0.47
HEATR6_Q6AI08_846_ALGVYVLFPCLR (UniProt Q6AI08),-0.729,0.0143

# In a second layout: results already given
Target	probe-labelled cysteine peptide fold change (10 µM)	probe-labelled cysteine peptide fold change (50 µM)
HIP1_O00291_613_LASTEESMCQLAK (UniProt O00291)	-0.298	-0.336
HECTD1_Q9ULT8_146_ESGAVFEAGGLNCVLTFIR (UniProt Q9ULT8)	0.0977	0.359
HGD_Q93099_180_MLVQPNEICVIQR (UniProt Q93099)	-0.089	0.177
HDDC3_Q8N4P3_133_CTPEGWSEHR (UniProt Q8N4P3)	0.13	-0.00995
HIGD2A_Q9BW72_53_TRENPVVPIGCLATAAALTYGLYSFHR (UniProt Q9BW72)	0.219	0.296
HLA-DRB5_Q30154_146_TQTLQHHNLLVCSVNGFYPGSIEVR (UniProt Q30154)	0.00511	0.0856
HMGCL_P35914_323_VAQATCK (UniProt P35914)	-0.282	-0.413
HLA-E_P13747_185_AYLEDTCVEWLHK (UniProt P13747)	-0.138	0.067
HDAC10_Q969S8_663_MLQCHPHLVA (UniProt Q969S8)	-0.0368	-0.2
HERC2_O95714_1037_ISSCLDFEQHSR (UniProt O95714)	0.0441	0.321
HELZ_P42694_100_AVLCCMQLK (UniProt P42694)	-0.406	-1.27

# The results go on:

Target,probe-labelled cysteine peptide fold change (10 µM),probe-labelled cysteine peptide fold change (50 µM)
HECTD1_Q9ULT8_762_LTVGNWSLTCLK (UniProt Q9ULT8),0.0373,0.0401
HK2_P52789_158_KLPLGFTFSFPCHQTK (UniProt P52789),0.056,-0.0579
HDAC2_Q92769_285_CVEVVK (UniProt Q92769),0.0827,0.14
HLA-C_P04222_345_GGSCSQAASSNSAQGSDESLIACK (UniProt P04222),-0.3,-0.868
HMGCR_P04035_600_ACDSAEVK (UniProt P04035),-0.0934,-0.109
HDAC6_Q9UBN7_539_PATEAELLTCHSAEYVGHLR (UniProt Q9UBN7),-0.137,0.302
HELB_Q8NG08_350_SCVFPYDLYHAER (UniProt Q8NG08),-0.0198,-0.0529
HERC5_Q9UII4_892_MCDEDIIK (UniProt Q9UII4),-0.0238,-0.282
HECTD1_Q9ULT8_2086_QLYFTCTAFGASR (UniProt Q9ULT8),0.171,0.328
HIF1AN_Q9NWT6_216+236_CILFPPDQFECLYPYPVHHPCDR (UniProt Q9NWT6),0.277,0.345
HECTD1_Q9ULT8_487_GHSEVVAILQSPGDWMCPVNK (UniProt Q9ULT8),0.0516,-0.292
HERC2_O95714_3016_VYACGEATNGR (UniProt O95714),0.109,0.336
HMGB3_O15347_23_MSAYAFFVQTCR (UniProt O15347),0.0558,-0.351
HDGF_P51858_108_SCVEEPEPEPEAAEGDGDKK (UniProt P51858),-0.119,-0.437
HDLBP_Q00341_948_CDIIIISGR (UniProt Q00341),-0.0282,-0.0117
HK1_P19367_628_ATDCVGHDVVTLLR (UniProt P19367),-0.00485,0.136
HMBS_P08397_114_DLPTVLPPGFTIGAICK (UniProt P08397),0.0394,-0.101
HIBCH_Q6NVY1_95_AFCAGGDIR (UniProt Q6NVY1),0.00459,0.0296
HGH1_Q9BTY7_138_EPAPCAALMAALAAAEPADSGLER (UniProt Q9BTY7),0.0774,0.0728
HDGF_P51858_12_CGDLVFAK (UniProt P51858),-0.289,-0.21
